# Assay results as given in PubChem BioAssay AID2685 (National Center for Advancing Translational Sciences (NCATS), 2010).
# The campaign covered roughly 320,000 compounds. About 2,100 (0.66%) were called active. Inconclusive means that the source gave no clear call. Such entries were picked first, then a sample of the others. Calls come from the whole dose curve; as a rule, active = well fitted inhibition curve with a large enough effect in the signal ratio, with a control signal flat (not every such curve was filed as active); inconclusive = small, poorly fitted or top-dose-only effect, or effect the other way, or a change in a side signal; inactive = flat fitted curve, though single readings scatter; the % refers to the signal ratio. Potencies of inconclusive entries are doubtful fits and often do not repeat.
# Assay: qHTS Assay for Lipid Storage Modulators in Drosophila S3 Cells
# Conditions: BODIPY lipid droplet fluorescence, 18-24 h, cells fed with added oleic acid; lipid storage change, negative = inhibition: at 46.1 µM (top of the series) unless noted
# Outline: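 Drosophila S3 cells loaded with oleic acid (400 uM, as added) and compounds at several concentrations; lipid droplets imaged by 488-nm laser-scanning cytometry, 500–530 nm intensity and object ratio to cell channel. Percent activity normalized to 20 uM Triacsin C.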
# % is set by controls: 0 for no effect and ±100 for the full control effect; potency is the fitted concentration of half-maximal effect.
Compound,Potency,"lipid storage change, negative = inhibition"
COc1ccccc1C(CNC(=O)C1COc2ccccc2O1)N1CCCC1 (centres undefined),"inconclusive: 16.4 µM [falling, single point]",
Cn1c(CNC(=O)c2ccccc2F)nnc1SCC(=O)Nc1nnc(C2CC2)s1,,inconclusive: -4.01%
COc1cccc(OC)c1NC(=O)CN(C)S(=O)(=O)c1ccc2c(c1)OCCO2,"inconclusive: 6.51 µM [falling, single point]",
CC(=O)Nc1ccc(NC(=O)C(c2ccccc2)c2ccccc2)cc1,"inconclusive: 29.1 µM [falling, single point]",
Cc1cc(C(=O)CN2C(=O)C(=O)N(Cc3ccco3)C2=O)c(C)n1CCc1ccccc1,,inconclusive: 7.48%
COc1ccnc2c1c(=O)n(Cc1ccccc1Cl)c(=O)n2C,"inconclusive: 6.51 µM [falling, single point]",
COc1ccc(CN2CCC(Oc3ccc(C(=O)N4CCCC4)cc3)CC2)c(F)c1,,inconclusive: 50.3%
COc1ccc(CNC(=O)c2cc3c(=O)n4ccccc4nc3n(CC3CCCO3)c2=N)cc1 (centres undefined),"inconclusive: 0.164 µM [activator, full curve, poor fit]",
CN(C)c1cc2c(cc1NS(=O)(=O)c1ccccc1)n(C)c(=O)n2C,,inconclusive: -73.3%
O=C(CN1CCCC1)Nc1cc(C(F)(F)F)cc(C(F)(F)F)c1,,inconclusive: 13.7%
CN1/C(=C\C(=O)Nc2ccc(Cl)cc2)C(C)(C)c2ccccc21,"inconclusive: 29.1 µM [falling, single point]",
Cc1cccc(NC(=O)CSCC(=O)Nc2cc(S(=O)(=O)N3CCOCC3)ccc2OC(C)C)c1,,inconclusive
COCCn1c(C)cc(C(=O)CSc2nc(C)cc(C)c2C#N)c1C,"inconclusive: 1.64 µM [activator, full curve]",
O=C(c1ccccc1)C1CCN(C(=O)c2ccco2)CC1,,inconclusive: 14.5%
Cc1cccc(NC(=O)CNC(=O)c2sc3ccccc3c2Cl)n1,,inconclusive: 21.3%
CSCCC(NC(=O)c1cccc(S(=O)(=O)N2CCOCC2)c1)c1nc2ccccc2[nH]1 (centres undefined),,inconclusive: 17.3%
Cc1onc(-c2ccccc2Cl)c1C(=O)N1CCCC1,"inconclusive: 13 µM [activator, single point]",
CCOCCCNc1nc2c(C)cccn2c(=O)c1/C=C1\SC(=S)N(C(C)CC)C1=O (centres undefined),active: 0.461 µM,
CCc1ccc(N2CC(C(=O)NCC(C)(C)N3CCOCC3)CC2=O)cc1 (centres undefined),,inconclusive: -3.35%
O=C(CSc1nnc(NCc2ccccc2)s1)c1ccco1,,inconclusive: -4.65%
CCN1CCN(CC(=O)Nc2cc3c(cc2C(C)=O)OCO3)CC1,,inconclusive: -16.6%
COc1ccc(C)cc1NC(=O)c1cc(S(=O)(=O)N2CCCCC2)ccc1N1CCOCC1,"inconclusive: 29.1 µM [falling, single point]",
O=C(COc1ccc(Cl)cc1Cl)Nc1ccc2nc3n(c(=O)c2c1)CCCC3,,inconclusive: 14.3%
COc1ccc(/C=N/Nc2ccccn2)c(OC)c1OC,,inconclusive: 41.2%
COc1ccc(C)cc1NC(=O)C1CCCN(S(=O)(=O)c2cccnc2)C1 (centres undefined),"inconclusive: 0.461 µM [activator, partial curve, poor fit]",

Compound,Potency,"lipid storage change, negative = inhibition"
O=C(COc1nncc2ccccc12)Nc1ccc(Br)cc1F,,inconclusive: -18.7%
Cc1ccc(OCC(=O)Nc2ccc(C)c(S(=O)(=O)N3CCCCC3)c2)c([N+](=O)[O-])n1,,inconclusive: -17.8%
O=C(COc1ccccc1)N1CCN(C(=O)c2ccc([N+](=O)[O-])cc2)CC1,,inconclusive: 2.33%
CCOC(=O)c1ccc(Nc2c(OCC)c(=O)c2=O)cc1,"inconclusive: 3.26 µM [activator, single point]",
CCC(C)NC(=O)CSc1ccc(Cl)cc1 (centres undefined),,inconclusive: 0.673%
CCOCCNC(=O)c1ccc2c3c(cccc13)CC2,,inconclusive: 37.7%
NS(=O)(=O)c1cccc(NC(=O)CC2(CC(=O)O)CCCC2)c1,,inconclusive: 220%
O=C(c1cc([N+](=O)[O-])ccc1N1CCCCC1)N1CCCC1,,inconclusive: -56.5%
CC1=Nc2ccccc2/C1=C\c1sc(Nc2ccc(C)cc2)nc1O,,inconclusive: 1.13%
CC(C)c1ccc(OCc2ccc(C(=O)NN3CCN(C)CC3)o2)cc1,,inconclusive: 17.6%
C=CCNC(=S)NCc1ccc(CNC(=S)NCC=C)cc1,,inconclusive: -14.6%
Oc1ccc2[nH]cnc2c1CN1CCCCC1,,inconclusive: -40.8%
COCCNC(=O)c1cnn2c(C(F)(F)F)cc(-c3ccc(C)cc3)nc12,,inconclusive: -8.62%
CCC(=O)n1nc(-c2cccnc2)nc1NCc1ccc(F)cc1,,inconclusive: -0.612%
CC(C)(C)c1ccc(C(=O)NCC(=O)NNC(=O)c2ccccc2O)cc1,,inconclusive: -11.4%
CC1(C)Cc2ccccc2-c2nnc(-c3ccc4ccccc4n3)n21,,inconclusive: -11.9%
CC(C)(C)OC(=O)N1CCN(c2ccc([N+](=O)[O-])cc2)CC1,,inconclusive: 26.8% [at 9.22 µM]
CC(C)(C)OC(=O)N1CCC(Cc2cc(-c3cccc(Br)c3)no2)(C(=O)O)CC1,,inconclusive: -17.6%
O=C(O)c1ccc2c(=O)n3c(nc2c1)/C(=C/c1ccc(OC(F)F)cc1OC(F)F)CC3,,inconclusive: -4.52%
COc1ccc(N2CCN(S(=O)(=O)c3ccc4c(c3)CC(C)N4C(=O)C3CC3)CC2)cc1 (centres undefined),"inconclusive: 6.51 µM [activator, partial curve, poor fit]",
Cc1c(Cl)cccc1NC(=O)CNC(=O)C1CCN(C(=O)Nc2ccccc2)CC1,,inconclusive: 17.9%
CC(NC(=O)CN1CCOCC1)c1ccccc1 (centres undefined),"inconclusive: 9.2 µM [activator, partial curve]",
COc1ccc2c(COC(=O)CCS(=O)(=O)c3ccc(C)cc3)cc(=O)oc2c1,,inconclusive
CCOc1cc(C2C3=C(CC(C)(C)CC3=O)N(CCCOC)C3=C2C(=O)CC(C)(C)C3)ccc1O,"inconclusive: 29.1 µM [activator, single point]",

# At a glance, some entries already given:
Compound,Potency,"lipid storage change, negative = inhibition"
COc1ccc(C)cc1NC(=O)c1cc(S(=O)(=O)N2CCCCC2)ccc1N1CCOCC1,"inconclusive: 29.1 µM [falling, single point]",
O=C(COc1ccc(Cl)cc1Cl)Nc1ccc2nc3n(c(=O)c2c1)CCCC3,,inconclusive: 14.3%
COc1ccc(/C=N/Nc2ccccn2)c(OC)c1OC,,inconclusive: 41.2%
COc1ccc(C)cc1NC(=O)C1CCCN(S(=O)(=O)c2cccnc2)C1 (centres undefined),"inconclusive: 0.461 µM [activator, partial curve, poor fit]",
